This is one part of the list. Shown are side measurements of this screen, not its main read-out; they come without a call. The list favours compounds with an active or inconclusive main result. Potencies come from curve fits of mixed quality, noted in brackets.
Test: qHTS Assay for Lipid Storage Modulators in Drosophila S3 Cells;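 on cell number change: cells counted by Cell Tracker Red CMTPX staining in the red channel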
Conditions: BODIPY lipid droplet fluorescence, 18-24 h; for cell number change: measured here: cell count max response, cells fed with added oleic acid
Summary of the method: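 Laser-scanning cytometry quantifies lipid droplet accumulation (500–530 nm total intensity; droplet/cell object ratio) in oleic acid-fed (400 uM added) Drosophila S3 cells treated with a concentration series. 20 uM Triacsin C defined 100% inhibition.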

[1] = measured here: lipid fluorescence (Fed channel) AC50, cells fed with added oleic acid
[2] = measured here: cell number channel AC50, cells fed with added oleic acid

| Compound | cell number change [%] | AC50 [1] | AC50 [2] |
| --- | --- | --- | --- |
| S=C(NCCCN1CCOCC1)NC1CCCC1 | -19.3 | – | – |
| COc1ccc([C@@H]2C(C#N)=C(N)S[C@@H](c3ccccc3)[C@@H]2[N+](=O)[O-])cc1 | -5.17 | 16.4 µM [rising, partial curve, poor fit] | – |
| Cc1cc(C)c2nc(NC(=O)c3ccco3)sc2c1 | -33.3 | 7.31 µM [falling, partial curve] | 11.6 µM [falling, partial curve, poor fit] |
| N#CC1=C2SCN(c3ccccc3)CN2C(=O)CC1c1ccccc1Cl (stereo unspecified) | 12.8 | 1.16 µM [falling, partial curve] | – |
| CCn1c(SCC(=O)N(C)C2CCS(=O)(=O)C2)nnc1-c1cccs1 (stereo unspecified) | 17.7 | – | – |
| Cc1ccc(S(=O)(=O)N2[C@@H](c3ccccc3)C(C(=O)O)=CC[C@H]2c2ccc(Cl)cc2)cc1 | -25.8 | – | – |
| COc1cc(/C=C/C(=O)NC(=O)c2ccccc2O)ccc1O | – | 0.146 µM [falling, partial curve, poor fit] | – |
| CC(C)(C)NCC1(CO)SC(N)=NC1=O (stereo unspecified) | 5.96 | 0.82 µM [rising, full curve, poor fit] | – |
| CCc1nc(N2CCC3(CC2)OCCO3)c2nnn(Cc3ccccc3Cl)c2n1 | -11.7 | 29.1 µM [falling, single point] | – |
| COc1ccc(C2(C(=O)NCC3CCCO3)CCOCC2)cc1 (stereo unspecified) | -24.9 | 8.2 µM [falling, single point] | 0.146 µM [falling, full curve, poor fit] |
| COc1ccc(S(=O)(=O)N2CCOCC2)c2ccccc12 | -9.71 | 32.6 µM [rising, single point] | – |
| O=C(COC(=O)c1ccccc1)NCc1ccco1 | 19.1 | 0.0164 µM [falling, full curve, poor fit] | – |
| CC(C)COC(=S)Nc1ccccc1 | – | 6.51 µM [rising, single point] | 0.326 µM [falling, partial curve, poor fit] |
| Cc1ccccc1-n1c(SC2CCOC2=O)nnc1-c1ccncc1 (stereo unspecified) | -17.1 | 3.26 µM [falling, partial curve] | – |
| CCOC(=O)c1c(C)c(-c2ccccc2)n(CC(=O)N2CCN(C)CC2)c1C | 24.3 | – | 6.51 µM [rising, partial curve, poor fit] |
| Cc1cc(NC(=NC2CC2)c2ccccc2F)n(-c2ccccc2)n1 | – | 0.13 µM [rising, full curve, poor fit] | 0.206 µM [rising, full curve, poor fit] |
| Cc1ccc(C)c(C(=O)CN2Cc3ccccc3C2=O)c1 | 23.9 | – | – |
| C/C(=C\c1ccccc1)C(=O)N1CCN(c2cccc(C(F)(F)F)c2)CC1 | 30.4 | 20.6 µM [rising, single point] | 23.1 µM [rising, partial curve] |
| CCCn1cnc2scc(-c3ccc(OC)cc3)c2c1=O | 9.09 | – | – |
| Cc1c(C)n(C)c2ccc(C(=O)NCCCN3CCCC3)cc12 | 3.63 | 20.6 µM [rising, partial curve, poor fit] | – |

| Compound | cell number change [%] | AC50 [1] | AC50 [2] |
| --- | --- | --- | --- |
| CCCCCCCCNC(CO)(CO)CO | -50.4 | 0.731 µM [falling, full curve] | 29.1 µM [falling, single point] |
| CCN(C(=O)Cn1c(=O)n(Cc2ccccc2)c(=O)c2ccccc21)c1cccc(C)c1 | – | – | 2.06 µM [rising, single point] |
| Cc1ccccc1-c1nc(-c2ccc(NC(=O)c3cccs3)cc2)no1 | -9.48 | – | – |
| O=C(Nc1ccccc1)N1CCCC1 | -9.97 | – | – |
| CNc1nc(SC)nc(N(C)C#N)n1 | 3.87 | 6.51 µM [falling, partial curve] | 0.92 µM [falling, single point] |
| CC1(C)C(=O)N(c2ccccc2Cl)C(=O)c2ccccc21 | 20.4 | 0.82 µM [falling, partial curve] | – |
| CC(C)C(=O)Nc1nnc(SCc2cccc(F)c2)s1 | 10.8 | 2.06 µM [rising, partial curve] | 6.51 µM [rising, single point] |
| C=CCn1c(SCC(=O)c2ccc(O)c(O)c2)nnc1-c1ccc(C)cc1 | -30.2 | – | 29.1 µM [falling, single point] |
| CC1=NN(C(=O)COc2ccccc2C)C(O)(c2ccc(Cl)cc2)C1 (stereo unspecified) | -31.9 | 3.66 µM [falling, single point] | 7.31 µM [falling, partial curve] |
| Cc1[nH]c2ccccc2c1C(=O)C(C)Sc1nnc(C2CC2)o1 (stereo unspecified) | -4.28 | 10.3 µM [falling, single point] | – |
| CC(=O)c1ccc(NC(=O)C(C)OC(=O)c2ccc3c(c2)nc(C)n3-c2ccccc2)cc1 (stereo unspecified) | 32.9 | – | 6.51 µM [rising, partial curve] |
| CCOC(=O)C1=C(C)N=c2s/c(=C/c3ccco3)c(=O)n2C1c1cccc(OC)c1 (stereo unspecified) | -17.7 | 2.06 µM [falling, single point] | – |
| O=C(/C=C/c1ccco1)Nc1ccc(C(=O)N2CCOCC2)cc1 | -56.9 | 25.9 µM [falling, single point] | 32.6 µM [falling, single point] |
| CN(C)c1ccc(/C=N/NC(=O)C(O)(c2ccccc2)c2ccccc2)o1 | -142 | 29.1 µM [falling, partial curve] | 18.4 µM [falling, partial curve] |
| CC(C)COC(=O)c1cc(-c2ccc(/C=N/n3cnnc3)o2)ccc1Cl | 52.6 | – | 2.31 µM [rising, full curve] |
| CCOC(=O)C1(CCOC)CCN(C(C)CCc2ccc(OC)cc2)CC1 (stereo unspecified) | 0.955 | 6.51 µM [falling, partial curve] | – |
| COc1ccccc1C(=O)Nc1ccc(S(=O)(=O)N2CCC(C)CC2)cc1 | -9.72 | – | – |
| Fc1ccc(-c2csc(N3CCC(c4ccccc4)C3)n2)cc1 (stereo unspecified) | – | 6.51 µM [falling, single point] | – |
| CCOC(=O)CNC(=O)c1c2c(nc3ccccc13)CCCC2 | 33.5 | – | 32.6 µM [rising, single point] |

Retrieved by compound from above:

| Compound | cell number change [%] | AC50 [1] | AC50 [2] |
| --- | --- | --- | --- |
| CC1(C)C(=O)N(c2ccccc2Cl)C(=O)c2ccccc21 | 20.4 | 0.82 µM [falling, partial curve] | – |
| O=C(/C=C/c1ccco1)Nc1ccc(C(=O)N2CCOCC2)cc1 | -56.9 | 25.9 µM [falling, single point] | 32.6 µM [falling, single point] |
| N#CC1=C2SCN(c3ccccc3)CN2C(=O)CC1c1ccccc1Cl (stereo unspecified) | 12.8 | 1.16 µM [falling, partial curve] | – |
